PubChem BioAssay AID652272 – Drosophila RNAi Screening Center – 2013
Screen: 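Genes whose knock-down decreases or increases Hedgehog reporter output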 (primary screen). Cell system: Drosophila clone 8 (Cl8) cells. Reagents: long dsRNA against Drosophila genes. Measurement: 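Plate reader light from a firefly reporter under a ptc promoter fragment that responds to Hedgehog, with Renilla light as transfection reference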. Reading the numbers: firefly Hh reporter signal: higher = more ptc reporter light; Renilla reference signal: higher = more Renilla control light. Active means: 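Hit when the z-score averaged over two replicates is under -2 or over +3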. Meaning of the calls: active = hit: reporter lowered or raised; inactive = not a hit.
The deposit covers about 21,000 reagents; shown is an unselected part of those with a known target gene and a result. Of all reagents, 503 (2.4%) got an active call. 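Raw plate light values, not normalised; calls rest on replicate z-scores that were not deposited; hits include reporter decreases as well as increases.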 Unmarked entries are inactive. Not stated in the record: the amount of reagent, the time to read-out.

predicted target | dsRNA | firefly Hh reporter signal, replicate 1 | firefly Hh reporter signal, replicate 2 | firefly Hh reporter signal, replicate 3 | Renilla reference signal, replicate 1 | Renilla reference signal, replicate 2
phu | DRSC16390 | 62312 | 1.12e5 | – | 2322 | 2992
Cyp6a14 | DRSC07376 | 75805 | 28835 | – | 1872 | 2758
wdb | DRSC14163 | 42568 | 59901 | – | 1452 | 2464
CG17065 | DRSC20544 | 68180 | 2.51e5 | – | 1622 | 11012
oys | DRSC05203 | 61738 | 1.33e5 | – | 1665 | 6506
oys | DRSC06751 | 72388 | 53914 | – | 2794 | 2001
SdhAL | DRSC10539 | 1.12e5 | 61216 | – | 4516 | 2419
CG13895 | DRSC08365 | 90640 | 63562 | – | 3494 | 4433
Optix | DRSC05078 | 7.91e5 | 1.44e5 | 1.89e5 | 7158 | 10608
Optix | DRSC07484 | 85606 | 51771 | – | 3977 | 2032
CG11617 | DRSC00321 | 1.60e5 | 1.55e5 | – | 3792 | 3760
CG10962 | DRSC18421 | 56549 | 97505 | – | 1533 | 2204
Achl | DRSC06665 | 82018 | 50861 | – | 2128 | 4259
wek | DRSC03561 | 77888 | 43772 | – | 3483 | 2045
intr | DRSC14528 | 1.05e5 | 95168 | – | 1844 | 2296
CG11400 | DRSC06070 | 63543 | 42819 | – | 1728 | 3241
CG34167 | DRSC01525 | 1.02e5 | 2.03e5 | – | 3276 | 8690
CG3032 | DRSC18266 | 91111 | 1.82e5 | – | 2932 | 6569
Tak1 | DRSC20390 | 5.74e5 | 2.85e5 | – | 41936 | 7538
Tak1 | DRSC20561 | 73828 | 2.27e5 | – | 2133 | 8984
Tak1 | DRSC20562 | 1.17e5 | 4.06e5 | – | 3321 | 16541
CG7294 | DRSC03041 | 1.54e5 | 54002 | – | 3714 | 7440
SelT | DRSC02732 | 76982 | 45478 | – | 3238 | 1786
CG8500 | DRSC16434 | 61591 | 84182 | – | 2498 | 3312
CG13540 | DRSC04182 | 75724 | 36660 | – | 946 | 3665

Reprinted from above for reference:
predicted target | dsRNA | firefly Hh reporter signal, replicate 1 | firefly Hh reporter signal, replicate 2 | firefly Hh reporter signal, replicate 3 | Renilla reference signal, replicate 1 | Renilla reference signal, replicate 2
Achl | DRSC06665 | 82018 | 50861 | – | 2128 | 4259
wek | DRSC03561 | 77888 | 43772 | – | 3483 | 2045
intr | DRSC14528 | 1.05e5 | 95168 | – | 1844 | 2296
CG11400 | DRSC06070 | 63543 | 42819 | – | 1728 | 3241
CG34167 | DRSC01525 | 1.02e5 | 2.03e5 | – | 3276 | 8690
CG3032 | DRSC18266 | 91111 | 1.82e5 | – | 2932 | 6569

Next results follow.
predicted target | dsRNA | firefly Hh reporter signal, replicate 1 | firefly Hh reporter signal, replicate 2 | firefly Hh reporter signal, replicate 3 | Renilla reference signal, replicate 1 | Renilla reference signal, replicate 2
Mf | DRSC16120 | 1.34e5 | 1.18e5 | – | 5056 | 3506
FucTD | DRSC08634 | 61540 | 37921 | – | 2466 | 3320
CG32302 | DRSC08340 | 49232 | 45357 | – | 1812 | 3464
bou | DRSC17924 | 78000 | 2.06e5 | – | 2813 | 7033
ssh | DRSC16730 | 4.11e5 | 1.06e5 | – | 22609 | 3424
Ip6k | DRSC04054 | 56640 | 33523 | – | 2918 | 1926
Lapsyn | DRSC04249 | 1.23e5 | 78502 | – | 4688 | 3320
yata | DRSC15408 | 51737 | 93388 | – | 1392 | 2728
unc | DRSC20511 | 1.36e5 | 2.36e5 | – | 5361 | 10476
Tab2 | DRSC07481 | 83714 | 59354 | – | 1836 | 3900
AsnS | DRSC11468 | 2.56e5 | – | – | 6551 | –
CG15753 (retired record) | DRSC18982 | 7.91e5 | 1.25e5 | – | 4189 | 4189
CG15753 (retired record) | DRSC19503 | 1.12e5 | 98331 | – | 2344 | 2128
CG15753 (retired record) | DRSC19716 | 82272 | 2.78e5 | – | 2496 | 11297
CG15753 (retired record) | DRSC19717 | 69488 | 2.06e5 | – | 1613 | 6404
CG15753 (retired record) | DRSC19718 | 40469 (active) | 26056 | – | 2613 | 1057
CG10005 | DRSC14172 | 1.07e5 | 90267 | – | 4066 | 1980
peb | DRSC18817 | 54853 | 85472 | – | 1978 | 3193
Spp | DRSC00328 | 50219 | 65755 | – | 2390 | 2752
CG31265 | DRSC15745 | 59235 | 1.15e5 | – | 1456 | 2648
CG18537 | DRSC06764 | 1.00e5 | 64914 | – | 2912 | 4400
CG10834 | DRSC03693 | 77772 | 54364 | – | 2051 | 4024
CG42824 | DRSC13230 | 52259 | 2.67e5 | – | 10212 | 6667
Alg2 | DRSC08298 | 95577 | 80026 | – | 3654 | 3248
RanBPM | DRSC06079 | 46196 | 42774 | – | 2626 | 1867
Cmtr1 | DRSC18400 | 90108 | 1.73e5 | – | 3136 | 6752
CG9782 | DRSC19145 | 6.19e5 | 2.37e5 | – | 36210 | 5426
CG9782 | DRSC20209 | 1.22e5 | 2.95e5 | – | 4523 | 11201
CG3483 | DRSC04371 | 1.07e5 | 94508 | – | 4661 | 3648
Tango5 | DRSC18023 | 74880 | 62688 | – | 1869 | 1368
Hsp23 | DRSC11188 | 1.10e5 | 45723 | – | 4324 | 2229
CG32440 | DRSC11480 | 2.31e5 | – | – | 5818 | –
